Results are given in words; binding and its absence hold for the method and conditions named. Some binding calls cover weakened binding; strength is not graded here.
Target: CD95-His (Sino Biological) (UniProt P25445)
Assay: native gel or EMSA; blue native PAGE (BN-PAGE); 100 ng CD95-His alone or with 10x molar excess of IZ-CD95L or FLAG-CD95L; 4 °C; blot probed with anti-CD95 antibody (clone DX2); both purified

By UniProt entry, the sequences of proteins in these tests, tags left out. Residues count along the entry.
UniProt P25445, residues 26-173: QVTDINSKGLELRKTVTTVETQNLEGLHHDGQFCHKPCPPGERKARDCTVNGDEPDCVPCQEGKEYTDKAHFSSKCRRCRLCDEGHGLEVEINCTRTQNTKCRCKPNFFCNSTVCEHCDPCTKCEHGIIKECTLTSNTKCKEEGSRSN
UniProt P48023, residues 130-281: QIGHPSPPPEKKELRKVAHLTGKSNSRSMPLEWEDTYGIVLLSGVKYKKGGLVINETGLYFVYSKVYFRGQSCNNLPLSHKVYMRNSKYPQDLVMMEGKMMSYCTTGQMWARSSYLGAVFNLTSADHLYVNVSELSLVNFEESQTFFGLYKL

For “CD95-His (Sino Biological) (from UniProt P25445 26-173) (receptor)”, which binding is on record?
Its binding is “binds”.

“FLAG-CD95L (Enzo) (from UniProt P48023 130-281) (ligand)” was tested. Which binding did it give?
Its binding is “binds”.
